Measurements as given in PubChem BioAssay AID493014 (National Center for Advancing Translational Sciences (NCATS), 2011).
This is one part of the list. Further columns of the screen follow, without active or inactive calls. Most of these compounds were active or inconclusive in the main read-out, so they are no random draw. Potencies come from curve fits of mixed quality, noted in brackets.

Experiment: qHTS Assay to Find Inhibitors of Chronic Active B-Cell Receptor Signaling
Details: ABC-DLBCL IkBa-CBG/CBR reporter, luminescence ratio (green luciferase fused to IkBa over red control in TMD8 lymphoma cells), 4 h
Summary of the method: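 Concentration-response series (up to 46 uM) were applied to TMD8 dual-reporter cells for 4 h at 37C with doxycycline. Green/red ratio, after filter-overlap correction, defined %Activity; red signal alone was normalised to basal cells and zero luminescence.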

[1] = measured here: CBR red luminescence, cell number
[2] = measured here: IkBa-CBG green luminescence

SMILES	AC50 [1]	AC50 [2]
COc1ccccc1Nc1ncnc2c1cnn2-c1cccc(C)c1	8.91 µM [falling, partial curve]	–
CS(=O)(=O)N1CCN(C(=O)Cc2ccccc2)CC1	14.1 µM [rising, partial curve, poor fit]	–
Cc1cc(NC(=O)c2cccc(Br)c2)n[nH]1	16.4 µM [falling, partial curve, poor fit]	–
COc1ccc2sc(-c3ccccc3OC)c(-c3ccc(OCCN4CCOCC4)cc3)c2c1	–	20.6 µM [falling, single point]
Cc1cc(OCC(=O)Nc2ccccc2N2CCCC2)ccc1C(C)C	25.9 µM [rising, single point]	–
Cc1ccccc1NC(=O)c1ccccc1NC(=O)CCC(=O)O	32.6 µM [rising, partial curve, poor fit]	–
CCOc1ccc(/C=C2\SC(=S)N(CCC(=O)Nc3ccccc3C(=O)O)C2=O)cc1	6.31 µM [rising, single point]	–
COc1ccc(C(=O)N[C@H](C(=O)Nc2nc3ccccc3[nH]2)C(C)C)cc1	15.8 µM [falling, partial curve]	3.16 µM [falling, full curve, poor fit]
Cc1nc(NC(CC(C)C)C(=O)O)c2nc(C)oc2n1 (configuration not stated)	29.1 µM [falling, single point]	32.6 µM [rising, partial curve, poor fit]
CC(=O)c1cccc(NC(=O)c2ccc3c(c2)OCO3)c1	17.8 µM [falling, single point]	–
C/C(=N\NC(=O)c1ccncc1)c1ccc(N(C)C)cc1	35.5 µM [falling, single point]	–
CC1CCCCN1C(=O)Nc1cccc(Cl)c1 (configuration not stated)	22.4 µM [rising, single point]	–
CCCNC(=O)NS(=O)(=O)c1cnccc1Sc1ccc(Cl)c(Cl)c1	3.98 µM [rising, full curve, poor fit]	–
CN1Cc2cc(C(=O)c3cc(Cl)cc(CSc4ncccn4)c3O)cnc2NC1=O	0.891 µM [rising, full curve, poor fit]	2 µM [falling, full curve]
O=C(CN1C(=O)C2C3C=CC(C3)C2C1=O)Nc1ccc(F)cc1 (configuration not stated)	0.501 µM [falling, full curve, poor fit]	–
COc1cccc(-c2nnc(SCC(=O)N3CCOCC3)o2)c1	22.4 µM [falling, single point]	–
NS(=O)(=O)c1ccc(NC(=O)CCC2CCCCC2)cc1	2.82 µM [rising, full curve, poor fit]	–
CC1CCN(c2ccc([N+](=O)[O-])cn2)CC1	3.66 µM [rising, full curve, poor fit]	–
CCOC(=O)C1CCCCN1Cc1ccc(-c2ccccc2)cc1 (configuration not stated)	35.5 µM [rising, single point]	–
COc1cccc(C(=O)Nc2ccccc2C(=O)N2CCCC2)c1	4.61 µM [falling, partial curve, poor fit]	–
O=C(Nc1ccc(F)cc1)N(CCCN1CCOCC1)Cc1cc2cc3c(cc2[nH]c1=O)OCCO3	6.31 µM [falling, partial curve]	–

SMILES	AC50 [1]	AC50 [2]
CCOC(=O)c1c(NC(=O)c2cc(C(C)C)on2)sc(C(C)=O)c1C	6.51 µM [falling, single point]	–
CCOc1ccc(-n2c(N)c(C(=O)NCc3ccco3)c3nc4ccccc4nc32)cc1	29.1 µM [falling, single point]	–
O=C(Nc1ccc(N2CCOCC2)c(Cl)c1)C1CCCCC1	16.4 µM [falling, partial curve, poor fit]	–
CCNc1nc(NCC)nc(SCCOC(=O)COc2ccc(Cl)cc2Cl)n1	23.1 µM [falling, partial curve]	–
CCCNC(=O)NNC(=O)c1cc(-c2ccc3c(c2)OCO3)nc2ccccc12	15.8 µM [falling, partial curve, poor fit]	–
COc1cccc(-c2nc(Oc3cccc(C)c3C)c3ccccc3n2)c1O	0.206 µM [rising, full curve, poor fit]	–
Cc1onc(-c2ccccc2Cl)c1C(=O)NCc1nnnn1-c1ccc(F)cc1	14.6 µM [rising, partial curve, poor fit]	–
CC(/C=N/NC(=O)c1cc(-c2ccncc2)nc2ccccc12)=C\c1ccco1	15.8 µM [rising, partial curve]	10 µM [falling, partial curve]
O=C(Nc1ccccc1F)Nc1ccccc1Br	5.62 µM [falling, partial curve, poor fit]	–
CCCOc1ccc(/C=N/NC(=O)c2ccc(Cn3cc([N+](=O)[O-])cn3)o2)cc1	7.08 µM [falling, partial curve]	–
COc1ccc(NC(=O)c2cc3ccccc3cc2OC)cc1OC	20 µM [falling, single point]	–
O=[N+]([O-])c1ccc(-c2nnc3cccc(Cl)n23)cc1	10 µM [rising, partial curve]	–
N#Cc1ccc(C(=O)Nc2ccc([N+](=O)[O-])cc2)c(F)c1	0.282 µM [rising, full curve, poor fit]	–
COc1ccc(NS(=O)(=O)c2cc(NC(=O)c3ccc(Cl)cc3)ccc2N2CCOCC2)cc1	2.06 µM [rising, full curve]	–
O=C(c1cc(-c2ccc(Cl)cc2)n(-c2ccc(Cl)c(Cl)c2)n1)N1CCOCC1	0.259 µM [rising, full curve, poor fit]	–
Fc1ccc(Nc2ccc3ccccc3n2)c(F)c1	2.51 µM [rising, partial curve]	–
CCc1cccc2sc(N3CCN(C(=O)c4ccc([N+](=O)[O-])o4)CC3)nc12	29.1 µM [falling, single point]	–
COc1ccc(OCCN2CCN(S(=O)(=O)c3ccccc3C#N)CC2)cc1	6.51 µM [rising, single point]	3.66 µM [falling, partial curve, poor fit]
O=C(Oc1ccc(N(C(=O)c2ccncc2)S(=O)(=O)c2ccc(Cl)cc2)cc1)c1ccncc1	0.794 µM [falling, full curve]	–
CN(CC(=O)NCCCN1CCOCC1)S(=O)(=O)c1ccc(Br)cc1	6.51 µM [falling, partial curve]	29.1 µM [rising, partial curve, poor fit]
O=C(C[n+]1cc(-c2ccc(Cl)cc2)n2c1CCC2)N1c2ccccc2Sc2ccccc21	11.6 µM [falling, partial curve]	–

SMILES	AC50 [1]	AC50 [2]
COc1ccsc1C(=O)N1CCN(Cc2ccc3c(c2)OCO3)CC1	0.461 µM [rising, partial curve, poor fit]	–
COc1cc(C(=O)Nc2ccccc2NC(=O)c2cc(OC)c(OC)c(OC)c2)cc(OC)c1OC	0.316 µM [rising, full curve]	–
Cc1ccc(Oc2nc3c(c(=O)n(C)c(=O)n3C)n2C)cc1C	7.08 µM [falling, partial curve, poor fit]	–
CC1CCN(CC(=O)Nc2sc3c(c2C#N)CCC3)CC1	0.631 µM [rising, full curve, poor fit]	–
CCCn1nnc(NC(=O)c2ccc3c(c2)OCO3)n1	1.12 µM [falling, full curve, poor fit]	–
COc1ccc(C2(CNC(=O)c3ccc(C)cc3)CCOCC2)cc1	22.4 µM [rising, single point]	–
CCOC(=O)c1c(C)[nH]c(C(=O)CN2C(=O)NC(C)(c3ccc(C)cc3)C2=O)c1C (configuration not stated)	6.31 µM [falling, partial curve, poor fit]	–
c1ccc(C2=Nn3c(nnc3-c3cccnc3)SC2)cc1	25.1 µM [falling, single point]	–
c1ccc2c(c1)Cc1cc(CN3CCOCC3)ccc1-2	14.6 µM [rising, partial curve, poor fit]	–
CC(=O)c1nc(N2C(=O)C3CC=C(C)CC3C2=O)sc1C (configuration not stated)	29.1 µM [falling, single point]	–
O=C(O)CC/C(=N\NC(=O)c1ccccc1)c1cccs1	5.01 µM [falling, partial curve]	–
CC(C)c1cc(CN2CCN(Cc3ccc(F)c(F)c3)C(CCO)C2)[nH]n1 (configuration not stated)	6.31 µM [falling, single point]	–
C=CCC[C@H](Cc1ccc(F)cc1)C(=O)OC[C@H](Cc1c[nH]c2ccccc12)NC(=O)[C@@H](CC=C)CC(=O)N[C@H](CO)Cc1ccccc1	18.4 µM [falling, partial curve, poor fit]	–
CCN(CC)CCn1c(SCC(=O)Nc2ccc(F)cc2)nc2c(sc3ccccc32)c1=O	7.08 µM [falling, partial curve]	–
CCC/C(=N\NC(=O)c1cccc(C)c1)c1ccccc1	14.6 µM [falling, partial curve]	–
Cc1ccc(SCCNC(=O)c2ccc(C)c(S(=O)(=O)Nc3cccc(C)c3)c2)cc1	28.2 µM [falling, single point]	–
C/C(=N\NC(=O)c1csc(C)c1C)c1ccco1	18.4 µM [falling, partial curve, poor fit]	–
Cc1ccccc1Nc1cc(C(=O)NCCCN2CCN(c3cccc(Cl)c3)CC2)c2ccccc2n1	10 µM [falling, partial curve, poor fit]	–
CCCCc1ccc(-c2csc(/C(C#N)=C/c3ccco3)n2)cc1	8.2 µM [rising, partial curve, poor fit]	–
